Results: the supplement of paper PMC10849652
The other results are listed elsewhere or left out.

The chains behind the UniProt entries cited, without tags or fusion partners. Where a name states a change or a piece, a line headed by the entry shows the natural chain unless it says otherwise.
UniProt Q8WXD2: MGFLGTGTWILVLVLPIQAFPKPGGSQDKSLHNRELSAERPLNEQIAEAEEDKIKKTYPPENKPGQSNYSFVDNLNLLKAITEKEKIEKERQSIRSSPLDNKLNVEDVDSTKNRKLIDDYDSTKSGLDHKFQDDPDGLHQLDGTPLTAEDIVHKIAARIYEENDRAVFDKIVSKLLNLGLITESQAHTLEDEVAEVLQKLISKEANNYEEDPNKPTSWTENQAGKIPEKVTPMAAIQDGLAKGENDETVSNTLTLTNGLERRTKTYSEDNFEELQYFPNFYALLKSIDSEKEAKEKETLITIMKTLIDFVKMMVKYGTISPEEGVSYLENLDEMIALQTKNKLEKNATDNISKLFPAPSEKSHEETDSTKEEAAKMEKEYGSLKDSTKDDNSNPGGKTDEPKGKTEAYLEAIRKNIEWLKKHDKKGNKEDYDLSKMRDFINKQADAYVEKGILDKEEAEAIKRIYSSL
UniProt Q9HC62: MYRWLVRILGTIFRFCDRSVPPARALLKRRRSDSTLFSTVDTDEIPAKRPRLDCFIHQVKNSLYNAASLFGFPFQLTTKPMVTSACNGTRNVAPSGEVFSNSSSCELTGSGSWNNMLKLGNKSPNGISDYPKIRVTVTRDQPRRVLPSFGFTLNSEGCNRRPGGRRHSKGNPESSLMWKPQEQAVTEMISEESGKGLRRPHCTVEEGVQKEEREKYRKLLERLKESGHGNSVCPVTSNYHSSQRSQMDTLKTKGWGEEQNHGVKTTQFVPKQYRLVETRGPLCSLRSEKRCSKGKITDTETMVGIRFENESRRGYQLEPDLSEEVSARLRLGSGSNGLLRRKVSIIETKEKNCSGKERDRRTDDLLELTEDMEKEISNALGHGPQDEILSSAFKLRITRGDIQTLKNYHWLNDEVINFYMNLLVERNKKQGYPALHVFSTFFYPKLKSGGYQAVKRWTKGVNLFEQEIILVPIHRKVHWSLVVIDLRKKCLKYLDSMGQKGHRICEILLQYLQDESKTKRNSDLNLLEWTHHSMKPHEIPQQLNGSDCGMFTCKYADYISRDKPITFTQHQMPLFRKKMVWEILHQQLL
UniProt O15027: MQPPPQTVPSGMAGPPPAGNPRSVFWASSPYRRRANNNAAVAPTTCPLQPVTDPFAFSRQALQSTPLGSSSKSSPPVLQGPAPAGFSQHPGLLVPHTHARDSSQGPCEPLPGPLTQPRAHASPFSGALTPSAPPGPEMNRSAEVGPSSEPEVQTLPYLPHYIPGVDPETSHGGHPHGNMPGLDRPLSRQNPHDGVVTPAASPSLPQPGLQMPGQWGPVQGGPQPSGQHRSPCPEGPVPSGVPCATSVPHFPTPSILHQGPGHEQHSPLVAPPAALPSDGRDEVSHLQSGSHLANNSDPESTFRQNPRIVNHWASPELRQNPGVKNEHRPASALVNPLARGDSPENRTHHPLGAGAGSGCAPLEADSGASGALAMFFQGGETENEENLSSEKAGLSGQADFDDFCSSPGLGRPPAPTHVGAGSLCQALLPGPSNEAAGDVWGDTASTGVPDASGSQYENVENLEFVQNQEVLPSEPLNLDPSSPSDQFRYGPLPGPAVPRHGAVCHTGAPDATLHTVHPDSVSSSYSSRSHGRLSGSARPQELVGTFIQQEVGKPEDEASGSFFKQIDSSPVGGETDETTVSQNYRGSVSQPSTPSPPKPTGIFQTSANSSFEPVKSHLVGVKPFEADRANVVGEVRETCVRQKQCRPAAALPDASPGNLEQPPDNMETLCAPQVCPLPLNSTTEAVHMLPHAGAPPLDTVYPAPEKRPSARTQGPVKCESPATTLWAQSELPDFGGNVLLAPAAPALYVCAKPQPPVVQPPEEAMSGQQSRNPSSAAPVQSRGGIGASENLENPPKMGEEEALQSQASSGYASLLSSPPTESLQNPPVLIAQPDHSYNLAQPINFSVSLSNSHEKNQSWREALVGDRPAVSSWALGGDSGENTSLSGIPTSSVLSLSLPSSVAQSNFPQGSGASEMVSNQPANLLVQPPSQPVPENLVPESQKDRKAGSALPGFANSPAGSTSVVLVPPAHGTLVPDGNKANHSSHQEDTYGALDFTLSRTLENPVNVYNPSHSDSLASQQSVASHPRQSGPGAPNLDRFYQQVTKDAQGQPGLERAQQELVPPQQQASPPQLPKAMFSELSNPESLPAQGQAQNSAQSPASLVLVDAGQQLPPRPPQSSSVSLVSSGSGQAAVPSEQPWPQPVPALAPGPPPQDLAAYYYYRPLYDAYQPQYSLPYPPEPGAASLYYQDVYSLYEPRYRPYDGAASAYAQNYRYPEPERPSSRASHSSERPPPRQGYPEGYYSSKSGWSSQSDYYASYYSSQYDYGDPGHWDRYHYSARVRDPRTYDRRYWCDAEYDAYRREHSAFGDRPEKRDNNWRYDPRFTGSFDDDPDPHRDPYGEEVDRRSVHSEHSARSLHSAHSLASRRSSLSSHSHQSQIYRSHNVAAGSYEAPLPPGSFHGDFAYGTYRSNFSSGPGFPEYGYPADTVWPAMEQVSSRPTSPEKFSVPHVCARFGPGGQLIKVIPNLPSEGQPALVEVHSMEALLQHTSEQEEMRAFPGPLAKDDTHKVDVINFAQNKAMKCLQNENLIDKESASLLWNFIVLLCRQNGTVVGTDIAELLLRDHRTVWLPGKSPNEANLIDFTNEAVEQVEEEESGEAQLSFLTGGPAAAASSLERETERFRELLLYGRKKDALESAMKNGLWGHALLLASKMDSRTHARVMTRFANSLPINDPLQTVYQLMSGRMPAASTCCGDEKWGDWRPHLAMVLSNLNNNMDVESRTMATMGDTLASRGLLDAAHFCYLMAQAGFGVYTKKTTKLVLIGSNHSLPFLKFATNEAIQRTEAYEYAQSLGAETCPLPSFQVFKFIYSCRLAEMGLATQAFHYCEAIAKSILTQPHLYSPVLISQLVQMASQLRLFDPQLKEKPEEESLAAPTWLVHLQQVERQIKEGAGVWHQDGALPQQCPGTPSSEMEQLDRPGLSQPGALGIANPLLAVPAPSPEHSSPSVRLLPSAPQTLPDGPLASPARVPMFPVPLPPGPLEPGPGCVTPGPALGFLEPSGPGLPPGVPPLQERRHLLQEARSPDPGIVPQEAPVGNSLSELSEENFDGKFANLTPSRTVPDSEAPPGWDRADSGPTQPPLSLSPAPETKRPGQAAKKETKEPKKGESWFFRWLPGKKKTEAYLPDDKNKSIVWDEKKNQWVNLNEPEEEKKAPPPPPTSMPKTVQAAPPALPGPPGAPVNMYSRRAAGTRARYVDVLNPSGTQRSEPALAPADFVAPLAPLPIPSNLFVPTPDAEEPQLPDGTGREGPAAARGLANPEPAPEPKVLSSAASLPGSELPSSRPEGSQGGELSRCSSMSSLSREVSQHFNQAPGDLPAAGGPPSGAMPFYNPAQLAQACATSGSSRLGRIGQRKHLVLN
UniProt P57086: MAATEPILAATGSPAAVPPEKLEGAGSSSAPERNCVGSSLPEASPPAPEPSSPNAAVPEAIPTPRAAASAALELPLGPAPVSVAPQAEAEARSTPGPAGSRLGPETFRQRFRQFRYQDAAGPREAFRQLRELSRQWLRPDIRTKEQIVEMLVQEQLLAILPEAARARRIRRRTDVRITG
UniProt Q8WWX9, whole entry, looked up: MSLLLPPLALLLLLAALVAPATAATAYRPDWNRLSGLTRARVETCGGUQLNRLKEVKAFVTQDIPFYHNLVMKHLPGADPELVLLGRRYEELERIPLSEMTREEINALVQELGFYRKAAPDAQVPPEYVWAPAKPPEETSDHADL
UniProt Q6UWP8: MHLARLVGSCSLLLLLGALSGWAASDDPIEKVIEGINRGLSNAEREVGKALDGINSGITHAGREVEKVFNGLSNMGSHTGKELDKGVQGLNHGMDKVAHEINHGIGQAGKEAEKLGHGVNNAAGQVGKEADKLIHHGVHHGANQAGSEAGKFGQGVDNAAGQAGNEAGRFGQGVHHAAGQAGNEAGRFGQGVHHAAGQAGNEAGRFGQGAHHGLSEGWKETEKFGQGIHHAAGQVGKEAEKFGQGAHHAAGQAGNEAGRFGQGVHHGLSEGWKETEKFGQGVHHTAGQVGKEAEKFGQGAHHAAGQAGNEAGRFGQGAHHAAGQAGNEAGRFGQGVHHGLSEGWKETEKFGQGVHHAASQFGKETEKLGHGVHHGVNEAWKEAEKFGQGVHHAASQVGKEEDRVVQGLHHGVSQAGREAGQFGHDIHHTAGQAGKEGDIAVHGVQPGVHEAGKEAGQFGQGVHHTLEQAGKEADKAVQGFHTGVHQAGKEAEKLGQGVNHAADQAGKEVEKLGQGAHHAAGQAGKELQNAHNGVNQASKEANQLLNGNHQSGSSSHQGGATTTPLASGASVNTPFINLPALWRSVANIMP
UniProt Q96LT4: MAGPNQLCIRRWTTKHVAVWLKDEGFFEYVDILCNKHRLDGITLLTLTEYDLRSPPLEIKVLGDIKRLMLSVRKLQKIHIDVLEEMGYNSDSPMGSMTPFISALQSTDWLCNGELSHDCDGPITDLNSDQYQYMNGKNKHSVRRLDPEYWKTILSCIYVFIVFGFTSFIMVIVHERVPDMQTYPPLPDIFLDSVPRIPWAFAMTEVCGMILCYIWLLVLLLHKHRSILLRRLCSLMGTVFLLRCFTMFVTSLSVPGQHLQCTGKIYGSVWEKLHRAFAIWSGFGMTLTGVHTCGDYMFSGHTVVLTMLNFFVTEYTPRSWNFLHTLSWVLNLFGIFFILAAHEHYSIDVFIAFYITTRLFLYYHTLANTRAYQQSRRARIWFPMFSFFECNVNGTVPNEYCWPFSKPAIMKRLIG
UniProt O95968: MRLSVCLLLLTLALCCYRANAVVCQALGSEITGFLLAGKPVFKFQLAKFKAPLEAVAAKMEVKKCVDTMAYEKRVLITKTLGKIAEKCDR
UniProt Q9HAJ7: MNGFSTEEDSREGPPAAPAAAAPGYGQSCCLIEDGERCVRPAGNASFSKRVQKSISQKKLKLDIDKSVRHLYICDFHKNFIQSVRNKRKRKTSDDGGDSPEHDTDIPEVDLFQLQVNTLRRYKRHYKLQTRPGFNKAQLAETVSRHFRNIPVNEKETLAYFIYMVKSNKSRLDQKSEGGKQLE
UniProt Q9NZV5, whole entry, looked up: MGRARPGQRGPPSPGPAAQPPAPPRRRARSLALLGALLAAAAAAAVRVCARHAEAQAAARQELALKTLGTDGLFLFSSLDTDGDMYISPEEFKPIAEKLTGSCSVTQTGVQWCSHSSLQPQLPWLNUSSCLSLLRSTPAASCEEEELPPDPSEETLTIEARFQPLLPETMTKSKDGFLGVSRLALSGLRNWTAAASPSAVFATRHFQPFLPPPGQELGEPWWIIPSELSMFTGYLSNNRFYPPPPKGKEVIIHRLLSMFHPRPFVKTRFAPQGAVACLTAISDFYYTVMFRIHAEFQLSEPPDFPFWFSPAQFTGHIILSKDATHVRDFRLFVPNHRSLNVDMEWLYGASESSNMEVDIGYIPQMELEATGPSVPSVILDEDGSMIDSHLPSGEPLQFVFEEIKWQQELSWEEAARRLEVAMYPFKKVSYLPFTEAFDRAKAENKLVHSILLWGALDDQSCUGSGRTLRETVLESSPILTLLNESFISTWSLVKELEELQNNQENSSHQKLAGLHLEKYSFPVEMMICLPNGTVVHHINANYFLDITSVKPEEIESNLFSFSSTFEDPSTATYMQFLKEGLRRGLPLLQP
UniProt P63302, whole entry, looked up: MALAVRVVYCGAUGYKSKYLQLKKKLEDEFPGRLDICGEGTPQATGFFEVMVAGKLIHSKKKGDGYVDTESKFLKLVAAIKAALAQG
UniProt P60896: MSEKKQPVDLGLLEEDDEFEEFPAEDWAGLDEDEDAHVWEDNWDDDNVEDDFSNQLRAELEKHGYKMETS
UniProt O75845: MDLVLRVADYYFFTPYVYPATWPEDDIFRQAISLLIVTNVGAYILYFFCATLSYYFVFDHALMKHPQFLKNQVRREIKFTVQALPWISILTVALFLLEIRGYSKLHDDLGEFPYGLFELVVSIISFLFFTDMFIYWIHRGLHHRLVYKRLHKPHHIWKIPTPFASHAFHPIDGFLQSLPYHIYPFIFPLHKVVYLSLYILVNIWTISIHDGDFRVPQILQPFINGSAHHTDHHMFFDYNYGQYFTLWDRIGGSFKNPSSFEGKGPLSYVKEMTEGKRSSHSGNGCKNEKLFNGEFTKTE
UniProt Q6SPF0: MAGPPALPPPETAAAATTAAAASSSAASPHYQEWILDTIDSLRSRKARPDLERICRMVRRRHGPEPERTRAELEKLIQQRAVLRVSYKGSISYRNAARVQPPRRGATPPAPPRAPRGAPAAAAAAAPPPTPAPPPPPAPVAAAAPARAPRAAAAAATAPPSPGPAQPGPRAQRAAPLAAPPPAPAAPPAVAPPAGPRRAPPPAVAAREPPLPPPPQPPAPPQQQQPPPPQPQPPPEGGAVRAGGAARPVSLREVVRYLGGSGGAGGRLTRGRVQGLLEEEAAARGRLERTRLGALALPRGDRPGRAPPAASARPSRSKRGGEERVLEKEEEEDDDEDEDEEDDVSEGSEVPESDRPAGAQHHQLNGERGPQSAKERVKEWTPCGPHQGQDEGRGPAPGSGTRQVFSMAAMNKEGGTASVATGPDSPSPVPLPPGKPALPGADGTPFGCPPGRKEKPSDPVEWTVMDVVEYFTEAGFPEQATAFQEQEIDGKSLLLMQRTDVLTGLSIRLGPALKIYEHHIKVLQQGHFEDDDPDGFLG

Tests used:
Assay in all cases: log2 fold change, soluble protein after heating vs DMSO (PISA); higher = thermal stabilisation; K562 lysate, 10 uM; active = over 0.2 and 3.5 SD of the protein, either way, in both replicates (recomputed)
[1] = compound: CC(C)C1=C2N=C(C=C(N2N=C1)NCC3=CC=CC=C3)NCCCCCCN
Outline: (§1)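 K562 pellets were dounce-homogenised in PBS pH 7.4 containing 1 mM MgCl2, and the crude extract, at 1 mg/mL protein, was exposed to 10 μM compound for 30 min. Aliquots were heated for 3 min across 48°C-58°C, pooled, brought to 0.5% NP-40 at 4°C and spun at 21,000xg for 90 min, with the supernatant taken as soluble protein. TMTpro 16plex LC-MS/MS with equalised channel sums quantified that protein. Values are log-two fold changes in thermal stability relative to solvent controls, taken from duplicates.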

[2] = compound: CC1=C(C(CC(=O)N1)C2=CC=C(C=C2)C(F)(F)F)C(=O)NC3=C(C=C4C(=C3)C=NN4)F
Outline: as §1

[3] = compound: CC1=C(C2=C(C=C1)C(=O)C3=CC=CC=C3N2CCCN)C
Outline: as §1

[4] = compound: CC1=C(C=C(C=C1)NC(=O)C2=CC(=CC=C2)C(C)(C)C#N)NC3=CC4=C(C=C3)N=CN(C4=O)C
Outline: as §1

vemurafenib = compound: CCCS(=O)(=O)Nc1ccc(F)c(C(=O)c2c[nH]c3ncc(-c4ccc(Cl)cc4)cc23)c1F [vemurafenib]
Outline: as §1

[5] = compound: CC[C@@H]1C(=O)N(C)c2cnc(Nc3ccc(C(=O)NC4CCN(C)CC4)cc3OC)nc2N1C1CCCC1
Outline: as §1

[6] = compound: CCn1cc(-c2ccnc3[nH]c(-c4cccc(CN(C)C)c4)cc23)c(-c2ccc(NC(=O)N(C)C)cc2)n1
Outline: as §1

[7] = compound: CN1CCC(CNc2ccc3ncc(-c4cccc(OC(F)(F)F)c4)n3n2)CC1
Outline: as §1

saracatinib = compound: CN1CCN(CCOc2cc(OC3CCOCC3)c3c(Nc4c(Cl)ccc5c4OCO5)ncnc3c2)CC1 [saracatinib]
Outline: as §1

sotrastaurin = compound: CN1CCN(c2nc(C3=C(c4c[nH]c5ccccc45)C(=O)NC3=O)c3ccccc3n2)CC1 [sotrastaurin]
Outline: as §1

[8] = compound: CC(=O)c1cnc2ccc(-c3cc(Cl)c(O)c(Cl)c3)nc2c1N[C@H]1CC[C@H](CN(C)C)CC1
Outline: as §1

[9] = compound: CC1=CC=C(C=C1)SC2=C3C=C(SC3=CN=C2)C(=O)N
Outline: as §1

[10] = compound: CCCS(=O)(=O)Nc1ccc(F)c(C(=O)c2c[nH]c3ncc(Cl)cc23)c1F
Outline: as §1

volasertib = compound: CC[C@@H]1C(=O)N(C)c2cnc(Nc3ccc(C(=O)N[C@H]4CC[C@H](N5CCN(CC6CC6)CC5)CC4)cc3OC)nc2N1C(C)C [volasertib]
Outline: as §1

ralimetinib = compound: CC(C)(C)Cn1c(N)nc2ccc(-c3[nH]c(C(C)(C)C)nc3-c3ccc(F)cc3)nc21 [ralimetinib]
Outline: as §1

[11] = compound: CC(C)(O)CC(=O)NCCn1ccc2ncnc(Nc3ccc(Oc4cccc(C(F)(F)F)c4)c(Cl)c3)c21
Outline: as §1

[12] = compound: CC1=C(C=C(C=C1)NC(=O)C2=CC(=CC=C2)N(C)C)NC(=O)C3=CC=C(C=C3)O
Outline: as §1

[13] = compound: CCn1c(C(=O)N(C2CC2)C2CC2)cc2c3c(ncn3C)c(Nc3cc(C)n(C)n3)nc21
Outline: as §1

Measured: log2 fold change

SCG3 (UniProt Q8WXD2)
inactive: [1] 0.007 | [2] 0.018 | [3] 0.028 | [4] 0.027 | vemurafenib 0.275 | [5] 0.083 | [6] -0.003 | [7] 0.026 | saracatinib 0 | sotrastaurin 0.134

SENP2 (UniProt Q9HC62)
inactive: [2] 0.043

SELPLG isoform 2 (UniProt Q14242)
inactive: [8] -0.033 | [9] -0.175 | [10] -0.076 | volasertib 0.01

SALL1 (UniProt Q9NSC2)
inactive: [2] -0.17 | [5] 0.174 | [6] 0.75 | [7] -0.228

SEC16A isoform 3 (UniProt O15027)
inactive: ralimetinib -0.283 | [11] -0.122 | [3] -0.006 | [12] -0.023 | [13] 0.231 | saracatinib 0.068

SCAND1 (UniProt P57086)
inactive: ralimetinib -0.192 | [11] 0.204 | [4] -0.03 | [12] 0.037 | [13] -0.003 | sotrastaurin 0.003

SELENOO (UniProt Q9BVL4)
inactive: [8] -0.085 | ralimetinib -0.176 | [11] -0.048 | [2] -0.03 | [3] 0.015 | [12] -0.175 | [9] 0.041 | [10] 0.006 | volasertib 0.042 | [13] 0.122 | [6] 0.146 | [7] 0.113 | saracatinib 0.14

SACS (UniProt Q9NZJ4)
inactive: [2] 0.02

SBNO2 (UniProt Q9Y2G9)
inactive: vemurafenib -0.126 | [6] -0.02 | [7] -0.088

SELENOM (UniProt Q8WWX9)
inactive: [8] 0.209 | ralimetinib -0.123 | [11] -0.016 | [4] 0.1 | [12] 0.077 | [9] 0.038 | [10] -0.122 | volasertib 0.039 | [13] -0.081 | sotrastaurin 0.02

SBSN (UniProt Q6UWP8)
inactive: [1] -0.085 | [6] -0.008 | [7] -0.235

SAMD8 (UniProt Q96LT4)
inactive: ralimetinib 0.025 | [11] -0.014 | [1] 0.005 | [12] -0.181 | [13] 0.111

SCGB1D1 (UniProt O95968)
inactive: [1] 2.32

SAP30L (UniProt Q9HAJ7)
inactive: ralimetinib -0.068 | [11] 0.014 | [1] -0.068 | [4] -0.028 | [12] 0.045 | [13] 0.068 | sotrastaurin 0.021

SARM1 (UniProt Q6SZW1)
inactive: [8] -0.014 | [1] 0.079 | [2] -0.102 | [9] 0.007 | [10] 0.054 | volasertib -0.061 | [6] -0.227 | [7] 0

SDHB, A0A087WXX8
inactive: [2] -0.069 | vemurafenib 0.128 | [6] -0.047 | [7] 0.053

SELENON (UniProt Q9NZV5)
inactive: [1] 0.066 | [3] -0.054 | saracatinib -0.328

SELENOW (UniProt P63302)
inactive: [8] -0.01 | ralimetinib -0.087 | [11] -0.065 | [4] 0.048 | [12] 0.036 | [9] -0.044 | [10] 0.05 | volasertib 0.079 | [13] -0.021 | [6] -0.087 | [7] 0.214 | sotrastaurin 0.104

SAV1 (UniProt Q9H4B6)
inactive: [2] -0.087

SEM1 (UniProt P60896)
inactive: [1] -0.032

SENP3 (UniProt Q9H4L4)
inactive: [8] 0.231 | [1] 0.157 | [3] -0.094 | [4] 0.002 | [9] 0.183 | vemurafenib -0.08 | [10] -0.435 | [5] -0.174 | volasertib -0.516 | [6] 0.113 | [7] -0.172 | saracatinib 0.029 | sotrastaurin 0.052

SC5D (UniProt O75845)
inactive: [8] 0.044 | [4] 0.006 | [9] 0.021 | [10] 0.033 | [5] 0.056 | volasertib 0.008 | [6] -0.061 | [7] 0.079 | sotrastaurin 0.061

SCOC (UniProt Q9UIL1)
inactive: ralimetinib 0.115 | [11] -0.06 | [1] 0.028 | [3] -0.318 | [4] 0.123 | [12] 0.07 | [13] -0.131 | saracatinib 0.086 | sotrastaurin -0.185

SDC3 (UniProt O75056)
inactive: ralimetinib 0.107 | [11] 0.015 | [1] -0.133 | [3] 0.128 | [4] 0.066 | [12] 0.033 | [13] -0.045 | saracatinib 0.035 | sotrastaurin 0.098

SCGB2A1 (UniProt O75556)
inactive: [8] 0.046 | [9] -0.229 | [10] 0.057 | volasertib -0.269 | [6] 0.791 | [7] -0.26

SEC16A isoform 2 (UniProt O15027)
inactive: ralimetinib -0.103 | [11] -0.062 | [12] 0.167 | [13] -0.204

SEC14L1 isoform 2 (UniProt Q92503)
inactive: [8] -0.251 | [9] -0.154 | vemurafenib 0.317 | [10] 0.046 | volasertib -0.111

SENP7 (UniProt Q9BQF6)
inactive: ralimetinib 0.067 | [11] -0.004 | [2] -0.097 | [3] -0.026 | [4] 0.046 | [12] -0.075 | [5] -0.026 | [13] -0.085 | [6] -0.322 | [7] 0.06 | saracatinib -0.113 | sotrastaurin 0.164

SAMD9 (UniProt Q5K651)
inactive: [8] -0.171 | ralimetinib 0.006 | [11] 0.024 | [2] 0.033 | [4] 0.019 | [12] 0.079 | [9] 0.023 | [10] -0.026 | [5] 0.169 | volasertib -0.095 | [13] 0.084 | [6] -0.206 | [7] 0.069 | sotrastaurin -0.044

SAE1 (UniProt M0R286)
inactive: [8] -0.101 | [1] 0.008 | [3] 0.063 | [9] -0.012 | vemurafenib 0.051 | [10] 0.052 | [5] -0.056 | volasertib 0.09 | saracatinib -0.039

SEMA4G isoform 2 (UniProt Q9NTN9)
inactive: [1] -0.013 | [3] -0.021 | [4] -0.137 | vemurafenib 0.042 | [5] -0.059 | [6] -0.072 | [7] 0.04 | saracatinib -0.227 | sotrastaurin 0.004

Fetched one by one from the list above (2):
SAE1 (UniProt M0R286)
inactive: [8] -0.101 | [1] 0.008 | [3] 0.063 | [9] -0.012 | vemurafenib 0.051 | [10] 0.052 | [5] -0.056 | volasertib 0.09 | saracatinib -0.039

SEMA4G isoform 2 (UniProt Q9NTN9)
inactive: [1] -0.013 | [3] -0.021 | [4] -0.137 | vemurafenib 0.042 | [5] -0.059 | [6] -0.072 | [7] 0.04 | saracatinib -0.227 | sotrastaurin 0.004

Next records

SAMD1 (UniProt Q6SPF0)
inactive: [8] -0.043 | ralimetinib 0.034 | [11] -0.131 | [2] 0.008 | [3] -0.015 | [4] -0.005 | [12] 0.131 | [9] 0 | [10] -0.007 | [5] -0.067 | volasertib -0.065 | [13] 0.016 | [6] 0.009 | [7] -0.397 | saracatinib -0.094 | sotrastaurin 0.065
